The other results are listed elsewhere or left out. These are further read-outs of the screen, such as a control signal, another cell line or another target. No call is given for them. Most of these compounds were active or inconclusive in the main read-out, so they are no random draw. The note in brackets gives the kind of curve behind each potency; many fits are weak.
Assay: qHTS Assay for Lipid Storage Modulators in Drosophila S3 Cells;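 as to cell number change: cells counted by Cell Tracker Red CMTPX staining in the red channel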
Settings: BODIPY lipid droplet fluorescence, 18-24 h; for cell number change: measured here: cell count max response, cells fed with added oleic acid
Summary of the method: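 Drosophila S3 cells loaded with oleic acid (400 uM, as added) and compounds at several concentrations; lipid droplets imaged by 488-nm laser-scanning cytometry, 500–530 nm intensity and object ratio to cell channel. Percent activity normalized to 20 uM Triacsin C.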

[1] = measured here: cell number channel AC50, cells fed with added oleic acid
[2] = measured here: lipid fluorescence (Fed channel) AC50, cells fed with added oleic acid

SMILES | AC50 [1] | AC50 [2] | cell number change
Cc1cccc(-c2nc(CSCC(=O)NCc3cccs3)c(C)o2)c1 | 2.31 µM [rising, single point] | 1.84 µM [rising, partial curve] | –
CCc1ccc(NC(=O)CNC(=O)[C@@H]2Cc3ccccc3CN2)cc1 | – | 4.11 µM [rising, single point] | 3.07%
O=C(COC(=O)CCC(=O)c1ccc(F)cc1)Nc1cccc(S(=O)(=O)N2CCOCC2)c1 | 0.103 µM [falling, full curve, poor fit] | 5.8 µM [falling, full curve] | -31.7%
O=c1cc(CN2CCOCC2)c2ccc(O)c(O)c2o1 | 4.61 µM [rising, partial curve] | 16.4 µM [rising, partial curve] | 36.2%
O=S(=O)(Nc1nc2ccccc2nc1N1CCN(c2ccccn2)CC1)c1ccc(Cl)cc1 | 29.1 µM [falling, single point] | – | -95.1%
CCC(=O)N1CCc2cc(Br)cc(S(=O)(=O)CCC(=O)NCCc3ccccc3)c21 | 2.59 µM [rising, partial curve] | – | –
CCc1ccc(-c2nc(CN3CCC(C(=O)NCc4ccccc4OC)CC3)c(C)o2)cc1 | – | 14.6 µM [falling, partial curve] | –
CC(C)C(=O)Nc1ccc(C(=O)Nc2nnc(C(C)C)s2)cc1 | – | – | -26.2%
CCc1cc(=O)oc2cc(OCC(=O)NCCCN3CCCC3=O)c(Cl)cc12 | – | 23.1 µM [falling, partial curve] | –
CC(=O)c1ccc(OCCCC(=O)OCC(=O)Nc2c(C)nn(-c3ccccc3)c2C)cc1 | – | – | 18.4%
COc1ccc(C(=O)NC(=S)NNC(=O)c2cccnc2)cc1 | – | 0.58 µM [falling, single point] | -5.65%
C=CCNC(=O)N[C@@H](CCSC)C(=O)OC | – | 0.103 µM [rising, single point] | –
O=C(CSc1nnc(-c2ccncc2)n1-c1ccccc1)NCC1CCCO1 (centres undefined) | – | 6.51 µM [rising, single point] | 17.5%
Cc1cc(C(=O)C(=O)N(C)C)c(C)n1-c1ccc(Cl)cc1 | 14.6 µM [rising, single point] | 29.1 µM [rising, partial curve, poor fit] | 44.2%
COc1cccc(CNC(=O)CCn2c(=O)oc3ccccc32)c1 | 32.6 µM [falling, partial curve, poor fit] | – | -71.2%
COc1cc(OC)cc(C(=O)N2CCC(N3CCCCCC3)CC2)c1 | – | 0.00517 µM [rising, full curve, poor fit] | 20.3%
O=C1OCCC1Sc1nnc(-c2cccnc2)n1-c1ccccc1F (centres undefined) | – | – | 0.988%
Cc1cccc2c1-c1sc(C(=O)N3CCc4ccccc4C3)cc1CO2 | – | 11.6 µM [rising, partial curve, poor fit] | 18.3%
COC(=O)C1(CC2CC(c3ccncc3)=NO2)CCN(C(=O)OC(C)(C)C)CC1 (centres undefined) | – | 0.00461 µM [falling, full curve, poor fit] | -2.18%
C=CCSc1nnc(NC(=O)CSc2nnc(C)s2)s1 | – | – | 17.9%

Retrieved by structure from the entries so far (3):
SMILES | AC50 [1] | AC50 [2] | cell number change
CCc1cc(=O)oc2cc(OCC(=O)NCCCN3CCCC3=O)c(Cl)cc12 | – | 23.1 µM [falling, partial curve] | –
COc1ccc(C(=O)NC(=S)NNC(=O)c2cccnc2)cc1 | – | 0.58 µM [falling, single point] | -5.65%
O=C(COC(=O)CCC(=O)c1ccc(F)cc1)Nc1cccc(S(=O)(=O)N2CCOCC2)c1 | 0.103 µM [falling, full curve, poor fit] | 5.8 µM [falling, full curve] | -31.7%

(continued)

SMILES | AC50 [1] | AC50 [2] | cell number change
Cc1cc(NC(=O)CSc2nc(Cc3ccc(O)cc3)c(C)[nH]2)no1 | – | – | 1.81%
CC(C)(C)NC(=O)c1ccc2c(c1)C1C3CCC(C3)C1C(c1ccccc1)N2 (centres undefined) | 1.16 µM [falling, full curve, poor fit] | 11.6 µM [falling, partial curve, poor fit] | -33.2%
COc1ccc(CCNC(=O)CNC(=O)Cn2cnc3sc(C)c(C)c3c2=O)cc1OC | 29.1 µM [rising, single point] | 4.61 µM [rising, full curve] | 48.2%
CCCCNC(=S)NC(C)(C)CO | – | – | -40.8%
O=C(CSc1nnc(Cc2ccsc2)o1)c1ccccc1 | – | 9.2 µM [rising, single point] | 19.1%
CCCCCOc1ccc(Cl)cc1CN1CCOCC1 | 5.8 µM [falling, full curve, poor fit] | 20.6 µM [falling, single point] | -30.6%
Clc1ccc(-c2csc(N/N=C\c3cccnc3)n2)cc1 | – | 9.2 µM [rising, partial curve] | -14.6%
Cc1ccc(-n2c(SCC(=O)NCc3ccc4c(c3)OCO4)nnc2-c2cccnc2)c(C)c1 | – | 4.11 µM [falling, single point] | -9.16%
O=C(c1c[nH]c2ccccc12)C(O)C(c1ccccc1)N1CCOCC1 (centres undefined) | – | 6.51 µM [rising, single point] | 18%
COc1ccc(-n2nc(C(=O)NCC(=O)NCc3ccco3)c3ccccc3c2=O)cc1Cl | – | 0.13 µM [falling, full curve, poor fit] | -27%
CC(=O)Nc1ccc(S(=O)(=O)Nc2cc(S(=O)(=O)N3CCCCC3)ccc2O)cc1 | – | – | -9.64%
Cc1cc(C)cc(NC(=O)c2nccnc2C(=O)O)c1 | – | 2.31 µM [rising, single point] | 9.69%
CCOC(=O)c1cn2nc(Oc3cccc(F)c3)ccc2n1 | 0.82 µM [falling, full curve, poor fit] | 29.1 µM [falling, partial curve, poor fit] | -26.1%
Cc1ccc2nc(-c3ccc(NC(=O)CN4CCN(C(=O)c5ccco5)CC4)cc3)sc2c1 | – | 1.84 µM [rising, full curve] | 13.1%
CCOc1ccc(C2C=C(c3ccc(C)cc3)Nc3nnnn32)cc1 (centres undefined) | – | 1.64 µM [falling, single point] | -17.2%
Cn1c(=O)c2cn(-c3cccc4ccccc34)cc2n(C)c1=O | 0.651 µM [rising, full curve, poor fit] | 10.3 µM [rising, partial curve] | 20.7%
O=C(CC(=O)Nc1ccccc1[N+](=O)[O-])Nc1ccccc1[N+](=O)[O-] | – | – | 26.1%
COc1ccc(C(=O)Nc2ccccc2N2CCN(C(=O)c3ccccc3)CC2)cc1Br | – | 20.6 µM [falling, partial curve] | –
CC(Oc1ccc(C(=O)c2ccccc2)cc1)C(=O)Nc1ccc(S(N)(=O)=O)cc1 (centres undefined) | 1.64 µM [falling, partial curve] | 29.1 µM [rising, single point] | 117%
COc1ccc(O)c(C(=O)c2cnn(C(=O)c3cccc(S(=O)(=O)N4CCOCC4)c3)c2)c1 | 0.184 µM [rising, full curve, poor fit] | – | -9.56%

SMILES | AC50 [1] | AC50 [2] | cell number change
Cn1c2cc(B(O)O)sc2c2cnn(Cc3c(F)cccc3F)c(=O)c21 | – | 1.03 µM [rising, partial curve] | 9.85%
COC(=O)COc1cccc(NC(=O)c2cc(OC)cc(OC)c2)c1 | 20.6 µM [rising, partial curve] | 29.1 µM [rising, partial curve] | 135%
COc1ccc(C)cc1NC(=O)CO/N=C(\N)CC(=O)NC1CCCCC1 | – | 8.2 µM [falling, single point] | -9.51%
CC(=O)Nc1cccc(NC(=O)c2ccccc2OCc2c(C)noc2C)c1 | 0.651 µM [rising, partial curve, poor fit] | – | -50%
CCc1c(C)nc(SCCOc2ccc(OC(C)C)cc2)[nH]c1=O | 1.3 µM [falling, full curve, poor fit] | – | -31%
CC(=O)Nc1ccc(S(=O)(=O)Nc2ccc(S(=O)(=O)Nc3nccs3)cc2)cc1 | 14.6 µM [rising, partial curve, poor fit] | 5.17 µM [falling, single point] | 33.3%
COc1ccc(-c2n[nH]c(C)c2-c2ccc(Cl)cc2)c(O)c1 | – | 29.1 µM [falling, single point] | -21.7%
CCOc1ccc(C(NC(C)=O)c2ccc(OC)c(OC)c2)cc1 (centres undefined) | – | – | -50.3%
COc1ccc(/C(O)=C2\C(=O)C(=O)N(CCN(C)C)C2c2cccc(OC)c2OC)cc1Cl (centres undefined) | – | – | 9.3%
O=C(Nc1ccc2ccccc2c1)c1ccc(Br)o1 | – | – | -4.34%
Cc1cc(SCC(=O)Nc2ccccc2)nc(C)n1 | 0.13 µM [rising, full curve, poor fit] | – | 30%
Cc1ccc2nc(SCC(=O)NCc3ccco3)c(C)cc2c1 | – | – | 30.2%
COc1ccc(CN2CC(C(=O)NCc3ccccn3)CC2=O)cc1 (centres undefined) | – | 0.517 µM [falling, partial curve] | –
C=CCn1c(SCC(=O)Nc2c(C)nn(Cc3ccccc3)c2C)nnc1C(O)c1ccccc1 (centres undefined) | 18.4 µM [rising, single point] | 18.4 µM [rising, single point] | 152%
Oc1cccc(Nc2nc(N3CCOCC3)nc(N3CCOCC3)n2)c1 | – | 6.51 µM [falling, partial curve, poor fit] | -13.3%
Cc1cc(C)c2sc(NC(=O)c3ccc([N+](=O)[O-])o3)nc2c1 | – | 0.731 µM [falling, full curve, poor fit] | -7.2%
CC1CC(C)CN(CCCNC(=O)c2cc3c(s2)-c2ccccc2OC3)C1 (centres undefined) | – | – | 3.96%
Fc1ccc(NC(=S)NC23CN4CN(CN(C4)C2)C3)cc1 | – | 0.517 µM [falling, full curve, poor fit] | -18.5%
Cc1ccc(N(CN2C(=O)NC(C)(C)C2=O)CN2C(=O)NC(C)(C)C2=O)cc1 | – | 2.91 µM [falling, full curve] | -6.57%
Cc1ccc(C(=O)NCCCNCCCN(C)C)cn1 | 2.31 µM [falling, full curve] | 0.731 µM [falling, full curve] | -34.9%

From PubChem BioAssay AID2685 (National Center for Advancing Translational Sciences (NCATS), 2010)
